Laboratory results from PubChem BioAssay AID186 (DTP/NCI, 2004).
Shown are survivors of the treated group in tumour-free mice. Counts of survivors are from the toxicity check (mostly the fifth day) where no day follows; animals may have died later. Schedule codes are those of the source, taken here to give the interval after Q, in days (D) or hours (H), and the number of doses after X. Counts like (3×) say how often a value occurs here. Some doses were run more than once; the values are given in rising order.

System: B6D2F1 mice, nontumored toxicity test, survival
Test: NCI In Vivo Anticancer Drug Screen. Data for tumor model Nontumored Animals (Toxicity Test) in B6D2F1 (BDF1) mice

Measured: survivor count

Cc1c2ccncc2c(C)c2c1[nH]c1ccccc12
3 of 8: dose: 32.0 mg/kg/injection, schedule: Q03HX016 (ip), vehicle: water
8 of 8 (2×): dose: 4.0 mg/kg/injection, schedule: Q03HX008 (ip), vehicle: water
2 of 8: dose: 128.0 mg/kg/injection, schedule: Q01DX001 (ip), vehicle: other
6 of 8: dose: 64.0 mg/kg/injection, schedule: Q03HX008 (sc), vehicle: water
1 of 8: dose: 32.0 mg/kg/injection, schedule: Q03HX024 (ip), vehicle: water | dose: 256.0 mg/kg/injection, schedule: Q08DX002 (ip), vehicle: other
8 of 8: dose: 1.0 mg/kg/injection, schedule: Q03HX024 (ip), vehicle: water | dose: 2.0 mg/kg/injection, schedule: Q03HX008 (ip), vehicle: water | dose: 2.0 mg/kg/injection, schedule: Q03HX008 (sc), vehicle: water | dose: 2.0 mg/kg/injection, schedule: Q03HX016 (ip), vehicle: water | dose: 2.0 mg/kg/injection, schedule: Q03HX024 (ip), vehicle: water | dose: 4.0 mg/kg/injection, schedule: Q01DX009 (ip), vehicle: water | dose: 4.0 mg/kg/injection, schedule: Q01DX009 (sc), vehicle: water | dose: 4.0 mg/kg/injection, schedule: Q03HX008 (sc), vehicle: water | dose: 4.0 mg/kg/injection, schedule: Q03HX016 (ip), vehicle: water | dose: 4.0 mg/kg/injection, schedule: Q03HX024 (ip), vehicle: water | dose: 8.0 mg/kg/injection, schedule: Q01DX009 (ip), vehicle: water | dose: 8.0 mg/kg/injection, schedule: Q01DX009 (sc), vehicle: water | dose: 8.0 mg/kg/injection, schedule: Q03HX008 (sc), vehicle: water | dose: 8.0 mg/kg/injection, schedule: Q03HX016 (ip), vehicle: water | dose: 8.0 mg/kg/injection, schedule: Q03HX024 (ip), vehicle: water | dose: 8.0 mg/kg/injection, schedule: Q04DX003 (ip), vehicle: other | dose: 8.0 mg/kg/injection, schedule: Q08DX002 (ip), vehicle: other | dose: 16.0 mg/kg/injection, schedule: Q01DX001 (ip), vehicle: other | dose: 16.0 mg/kg/injection, schedule: Q01DX001 (sc), vehicle: other | dose: 16.0 mg/kg/injection, schedule: Q01DX009 (ip), vehicle: water | dose: 16.0 mg/kg/injection, schedule: Q01DX009 (sc), vehicle: water | dose: 16.0 mg/kg/injection, schedule: Q03HX008 (sc), vehicle: water | dose: 16.0 mg/kg/injection, schedule: Q04DX003 (ip), vehicle: other | dose: 16.0 mg/kg/injection, schedule: Q08DX002 (ip), vehicle: other | dose: 32.0 mg/kg/injection, schedule: Q01DX001 (ip), vehicle: other | dose: 32.0 mg/kg/injection, schedule: Q01DX001 (sc), vehicle: other | dose: 32.0 mg/kg/injection, schedule: Q01DX009 (sc), vehicle: water | dose: 32.0 mg/kg/injection, schedule: Q03HX008 (sc), vehicle: water | dose: 32.0 mg/kg/injection, schedule: Q08DX002 (ip), vehicle: other | dose: 64.0 mg/kg/injection, schedule: Q01DX001 (ip), vehicle: other | dose: 64.0 mg/kg/injection, schedule: Q01DX001 (sc), vehicle: other | dose: 64.0 mg/kg/injection, schedule: Q01DX009 (sc), vehicle: water | dose: 64.0 mg/kg/injection, schedule: Q04DX003 (ip), vehicle: other | dose: 64.0 mg/kg/injection, schedule: Q08DX002 (ip), vehicle: other | dose: 128.0 mg/kg/injection, schedule: Q01DX001 (sc), vehicle: other | dose: 256.0 mg/kg/injection, schedule: Q01DX001 (sc), vehicle: other
0 of 8 (2×): dose: 32.0 mg/kg/injection, schedule: Q03HX008 (ip), vehicle: water | dose: 64.0 mg/kg/injection, schedule: Q03HX008 (ip), vehicle: water
5 of 8: dose: 128.0 mg/kg/injection, schedule: Q08DX002 (ip), vehicle: other
0 of 8: dose: 128.0 mg/kg/injection, schedule: Q01DX009 (ip), vehicle: water | dose: 256.0 mg/kg/injection, schedule: Q01DX001 (ip), vehicle: other | dose: 256.0 mg/kg/injection, schedule: Q04DX003 (ip), vehicle: other
4 of 8: dose: 128.0 mg/kg/injection, schedule: Q04DX003 (ip), vehicle: other
7 of 8 and 8 of 8: dose: 8.0 mg/kg/injection, schedule: Q03HX008 (ip), vehicle: water
4 of 8 and 8 of 8: dose: 16.0 mg/kg/injection, schedule: Q03HX008 (ip), vehicle: water
7 of 8: dose: 1.0 mg/kg/injection, schedule: Q03HX016 (ip), vehicle: water | dose: 16.0 mg/kg/injection, schedule: Q03HX016 (ip), vehicle: water | dose: 16.0 mg/kg/injection, schedule: Q03HX024 (ip), vehicle: water | dose: 32.0 mg/kg/injection, schedule: Q01DX009 (ip), vehicle: water | dose: 32.0 mg/kg/injection, schedule: Q04DX003 (ip), vehicle: other | dose: 64.0 mg/kg/injection, schedule: Q01DX009 (ip), vehicle: water
